According to US20230265201A1 (published 2023):
These are yes or no findings as the source states them, for the method shown. For part of these data: Binding can be weak; no strength is given.

Assays:
[1] = target: cynomolgus monkey Flag-TNC-CD70 (cynomolgus monkey); assay: CD27-CD70 inhibition ELISA
[2] = target: human-mouse CD70 chimera chim-1 (Flag-TNC-CD70); assay: ELISA on anti-Flag-captured chimera
[3] = target: human-mouse CD70 chimera chim-2.1 (Flag-TNC-CD70); assay: ELISA on anti-Flag-captured chimera
[4] = target: human-mouse CD70 chimera chim-2.2 (Flag-TNC-CD70); assay: ELISA on anti-Flag-captured chimera
[5] = target: human-mouse CD70 chimera chim-2.3 (Flag-TNC-CD70); assay: ELISA on anti-Flag-captured chimera
[6] = target: human-mouse CD70 chimera chim-2.4 (Flag-TNC-CD70); assay: ELISA on anti-Flag-captured chimera
[7] = target: human-mouse CD70 chimera chim-2 (Flag-TNC-CD70); assay: ELISA on anti-Flag-captured chimera, anti-human-Fc-HRP
[8] = target: human-mouse CD70 chimera chim-3 (Flag-TNC-CD70); assay: as above
[9] = target: human-mouse CD70 chimera chim-4 (Flag-TNC-CD70); assay: as above

- binding [1]: binds
- binding [2]: binds
- binding [3]: binds
- binding [4]: binds
- binding [5]: binds
- binding [6]: binds
B1: ARGX-110 (non-fucosylated human IgG1 of germlined 27B3 clone 41D12) (antibody, V domains shown)
VH: EVQLVESGGGLVQPGGSLRLSCAASGFTFSVYYMNWVRQAPGKGLEWVSDINNEGGTTYYADSVKGRFTISRDNSKNSLYLQMNSLRAEDTAVYYCARDAGYSNHVPIFDSWGQGTLVTVSS
VL: QAVVTQEPSLTVSPGGTVTLTCGLKSGSVTSDNFPTWYQQTPGQAPRLLIYNTNTRHSGVPDRFSGSILGNKAALTITGAQADDEAEYFCALFISNPSVEFGGGTQLTVLG
notes: also called ARGX-100; 41D12 (ARGX-110)
- binding [7]: no binding (tested: dilution series from 10 µg/ml)
- binding [8]: no binding (tested: dilution series from 10 µg/ml)
- binding [9]: no binding (tested: dilution series from 10 µg/ml)
